# Screening data, single-dose tests

Protein sequences, listed by entry. Tags and fused reporters are not part of them. Residues count along the entry.
UniProt A4I591, 1-473: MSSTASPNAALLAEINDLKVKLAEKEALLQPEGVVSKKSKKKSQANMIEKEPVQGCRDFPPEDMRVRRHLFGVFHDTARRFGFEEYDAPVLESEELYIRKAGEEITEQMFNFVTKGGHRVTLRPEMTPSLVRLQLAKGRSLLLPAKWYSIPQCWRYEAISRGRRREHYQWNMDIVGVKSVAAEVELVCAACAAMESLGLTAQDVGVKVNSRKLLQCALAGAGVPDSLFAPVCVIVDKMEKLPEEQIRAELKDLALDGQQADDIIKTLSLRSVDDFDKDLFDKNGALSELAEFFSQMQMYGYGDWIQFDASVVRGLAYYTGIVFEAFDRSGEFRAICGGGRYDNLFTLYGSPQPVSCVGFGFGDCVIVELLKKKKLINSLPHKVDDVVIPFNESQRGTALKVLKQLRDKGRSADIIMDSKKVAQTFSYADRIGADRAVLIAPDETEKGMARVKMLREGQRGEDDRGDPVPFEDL
UniProt Q4DA54, 1-478: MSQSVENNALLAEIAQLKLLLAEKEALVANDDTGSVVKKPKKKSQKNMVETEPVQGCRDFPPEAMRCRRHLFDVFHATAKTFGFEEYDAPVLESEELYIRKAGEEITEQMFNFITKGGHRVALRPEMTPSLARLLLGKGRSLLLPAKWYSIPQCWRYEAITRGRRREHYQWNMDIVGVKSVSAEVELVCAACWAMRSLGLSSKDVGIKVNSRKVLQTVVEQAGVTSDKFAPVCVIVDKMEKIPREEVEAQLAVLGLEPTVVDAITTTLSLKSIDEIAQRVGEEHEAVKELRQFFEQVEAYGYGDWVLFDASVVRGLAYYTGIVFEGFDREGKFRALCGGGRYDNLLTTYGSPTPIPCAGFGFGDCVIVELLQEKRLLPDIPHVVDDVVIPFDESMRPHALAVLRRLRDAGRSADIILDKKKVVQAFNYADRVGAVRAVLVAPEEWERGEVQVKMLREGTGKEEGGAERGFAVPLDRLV
UniProt Q8IDJ8, 1-583: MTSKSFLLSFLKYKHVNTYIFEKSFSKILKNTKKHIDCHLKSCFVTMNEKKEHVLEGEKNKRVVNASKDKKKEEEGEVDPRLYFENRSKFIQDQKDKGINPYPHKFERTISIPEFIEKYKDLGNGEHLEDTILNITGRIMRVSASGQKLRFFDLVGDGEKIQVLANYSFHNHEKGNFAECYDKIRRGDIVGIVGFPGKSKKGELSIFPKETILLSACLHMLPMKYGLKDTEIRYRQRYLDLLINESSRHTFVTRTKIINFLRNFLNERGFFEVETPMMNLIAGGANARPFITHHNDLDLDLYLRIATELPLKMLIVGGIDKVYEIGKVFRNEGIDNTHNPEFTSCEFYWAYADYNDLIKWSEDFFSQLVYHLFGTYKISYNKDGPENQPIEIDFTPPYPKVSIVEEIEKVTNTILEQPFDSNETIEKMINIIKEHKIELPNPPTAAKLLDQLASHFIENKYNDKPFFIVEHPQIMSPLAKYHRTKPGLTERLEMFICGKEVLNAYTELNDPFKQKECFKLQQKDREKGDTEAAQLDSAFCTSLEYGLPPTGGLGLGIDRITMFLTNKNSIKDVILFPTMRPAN

Data taken from ChEMBL document CHEMBL3988442, “University of Dundee, Small-Polar-MMV Screening Library” (2021).

Results are given as percent effect.
How 0% and 100% were set is not recorded. Most values in the screen are low, and negative values occur.
The compounds are a random part of those screened.
Two or more numbers in one place are separate tests of the same structure; such repeats can differ widely.

A: 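Enzyme assay of histidyl-tRNA synthetase; the read-out is not stated. Target: Histidine-tRNA ligase, Leishmania infantum (UniProt A4I591). Concentration: 30 µM. Direction is inferred from retests: higher values go with stronger inhibition. The assay is labelled LdHisRS but filed under L. infantum. About 69,000 compounds were tested under these conditions; 0.6% (about 410) showed 50% or more at least once.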
B: 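Histidine-tRNA ligase, Trypanosoma cruzi CL Brener (UniProt Q4DA54). Enzyme assay of histidyl-tRNA synthetase; the read-out is not stated. Compounds at 30 µM. The record gives no direction; compounds that gave an IC50 in retests scored well above the rest, so higher reads as stronger inhibition. Of about 69,000 compounds tested this way, about 31 (0.045%) reached 50% or more in at least one test.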
C: 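Enzyme assay of the cytosolic lysyl-tRNA synthetase in 384-well plates, read by luminescence. Target: Lysine-tRNA ligase, Plasmodium falciparum 3D7 (UniProt Q8IDJ8). Compounds at 30 µM. Higher reads as stronger inhibition, judged from the few compounds that gave an IC50. Size under these conditions: about 69,000 compounds, about 49 of them at 50% or above in at least one test.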
D: 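Cell assay of Leishmania donovani living inside macrophages; the read-out is not stated. Tested at 30 µM. Higher reads as stronger inhibition (inferred: compounds with an IC50 in retests scored well above the rest). About 69,000 compounds were tested under these conditions; 1.5% (about 1,000) showed 50% or more at least once.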

Compound: Cc1csc(C2CCCCN2C(=O)Cn2cncn2)n1 (stereo not drawn)
A: 15
B: 6.494
C: 1.406
D: 9.318

Compound: N#Cc1ccc(CCC(=O)N2CCC(CN3CCOCC3)CC2)cc1
A: -2.381
B: 9.901
C: -4.101
D: -3.548

Compound: Cc1nccc(N2CCCC(C)(C(=O)NC3CCCC3)C2)n1 (stereo not drawn)
A: 11.72
B: 0.7605
C: -0.06078
D: 27.89

Compound: CCn1c(CC2CCN(C(=O)c3cc(C(C)C)n[nH]3)CC2)n[nH]c1=O
A: -23.08
B: 6.897
C: 6.43
D: -11.28

Compound: COCCN1CCCC1c1nccnc1Nc1ncc(C)s1 (stereo not drawn)
A: 21.74
B: 8.791
C: 3.714
D: -8.548 and 21.84

Compound: O=C(O)Cn1ccc2c(Cl)cccc21
A: 13.27
B: 5.752
C: 6.162
D: 21.72

Compound: COc1ccncc1NC(=O)C1(c2ccc(F)cc2)CCC1
A: 2.083
B: 10.13
C: 6.842
D: 32.62

Compound: CN(C)c1ncnc2c1CCN(CC1CCOCC1)CC2
A: 19
B: 6.122
C: -0.5155

Compound: O=C(O)C(F)(F)F.O=C(O)C(F)(F)F.[H][C@@]12CN(Cc3csc(C)n3)CCO[C@]1([H])CN(Cc1ccsc1)C2
D: 2.933

Compound: CCOCc1nc2c(c(NC(COC)c3ccccn3)n1)CCNCC2 (stereo not drawn)
A: 23.08
B: 3.614
C: 10.03
D: 15.76 and 41.75

Compound: NC(=O)NCC(=O)N1C[C@H]2CC[C@@H]1CN(Cc1cscn1)C2
A: 0
B: -3.636
C: 4.19

Compound: CCOC(C)c1noc(CN2CCN(Cc3cccnc3)CC2)n1 (stereo not drawn)
A: -7.071
B: 3.226
C: -6.448
D: -12.86

Compound: Cn1ccnc1CN1CCCN(C(=O)c2ccc3[nH]nnc3c2)CC1
A: 4.464
B: 2.312
C: 0.439
D: 19.02

Compound: CCn1ncc2c1C(COCC1CC1)N(Cc1nccs1)CC2 (stereo not drawn)
A: 19.66
B: 10.16
C: 3.147

Compound: Cc1noc(C)c1CN(C)C(=O)C1CCCN1S(N)(=O)=O (stereo not drawn)
A: 11.67
B: 6.863
C: -4.512
D: 4.88

Compound: Cc1cnn(C2CCCN(C(=O)Cc3ccc4c(c3)CCO4)C2)c1 (stereo not drawn)
A: 1.724
B: 7.345
C: -1.133
D: -34.62

Compound: [H][C@@]12CCN(c3cnccn3)C[C@@]1(C(=O)O)CCCN2CCCSC
D: 7.03

Some entries from above, unchanged:

For Cc1noc(C)c1CN(C)C(=O)C1CCCN1S(N)(=O)=O (stereo not drawn) the result was A: 11.67%; B: 6.863%; C: -4.512%; D: 4.88%.
For CCn1ncc2c1C(COCC1CC1)N(Cc1nccs1)CC2 (stereo not drawn) the result was A: 19.66%; B: 10.16%; C: 3.147%.